Measurements published in patent publication EP0523085B1, “PEROXY ACID BLEACH PRECURSORS AND DETERGENT COMPOSITIONS CONTAINING THEM” (priority 1990, dated 1991).

Tests used:
[1] = model bleaching test at 10°C, stain removal by light reflectance; details: 6 mmoles sodium perborate tetrahydrate and 3.5 mmoles precursor in 500ml distilled water, 3, 6 and 9 minutes
[2] = fabric colour damage model test under stressed dissolution conditions; details: 0.01g powder sprinkled on swatch in 100mls 3% sodium perborate solution, 20°C; for pH of the solutions after 24 hrs: starting pH 9.3, average

Compound	stain removal relative to the corresponding liquor containing TAED [1]	visual examination of swatches after 24 hrs (colour change) [2]	pH of the solutions after 24 hrs [2]
CC(=O)N(CCC[N+](C)(C)C)C(C)=O.[Br-] [DTAPB, N,N-diacetyl trimethylammonio propylamine bromide]	superior	–	–
CC(=O)N(CCS(=O)(=O)[O-])C(C)=O.[K+] [KDAES, potassium N,N-diacetylaminoethane sulphonate]	superior	little fading from the original blue colour and little unevenness in hue variation	8.2
sodium perborate [reference compound]	–	changed colour uniformly from deep blue to a sage green	approximately 9.3
